Values from PubChem BioAssay AID1224831 (NIAID, 2016)

Purpose: 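Retesting screen hits on the TLR4-driven TNF response with six separate siRNAs each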 (follow-up of hits)
Cell system: human THP-1 B5 monocytic leukaemia cells carrying a TNF promoter luciferase reporter, made macrophage-like with PMA
Reagents: single siRNA against human genes, 50 nM
Timing: about 68 h of knock-down, then 4 h LPS
Treatment: LPS (Salmonella minnesota, TLR-grade) at 10 ng/ml for 4 h; PMA 5 ng/ml present during knock-down
Read-out: 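TNF promoter reporter read as dual luciferase ratio after 4 h LPS, normalised per plate to its median, given as replicate mean robust z-score per siRNA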
Reading the numbers: TNF reporter z-score: higher = stronger LPS-induced TNF reporter signal; z-score, median over gene's siRNAs: higher = stronger TNF reporter signal across the gene's siRNAs
Active means: 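Active when the replicate mean z-score is about -1 or lower, or about 1.5 or higher; lowered and raised TNF reporter signal both count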
Calls: active = changed TNF reporter (either direction); inactive = little change
This is a random part of about 3,500 reagents tested. Over the whole deposit, 731 (21%) are marked active. 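Active means either lowered or raised reporter signal; the gene-median score did not drive the per-siRNA calls.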 Reagents against one gene are numbered here.

no.	target	siRNA no.	TNF reporter z-score, replicate mean	z-score, median over gene's siRNAs	call
1	SUFU	1	-0.43	-0.165	inactive
2	SUFU	2	0.57	-0.165	inactive
3	SUFU	3	0.04	-0.165	inactive
4	SUFU	4	-0.37	-0.165	inactive
5	SUFU	5	0.77	-0.165	inactive
6	SUFU	6	-1.4	-0.165	active
7	CHST12	1	0.89	0.045	inactive
8	CHST12	2	-0.65	0.045	inactive
9	CHST12	3	0.74	0.045	inactive
10	CHST12	4	-0.76	0.045	inactive
11	CHST12	5	2.93	0.045	active
12	CHST12	6	-0.96	0.045	inactive
13	ENDOV	1	0.3	-0.14	inactive
14	ENDOV	2	-0.68	-0.14	inactive
15	ENDOV	3	-0.48	-0.14	inactive
16	ENDOV	4	-0.59	-0.14	inactive
17	ENDOV	5	0.21	-0.14	inactive
18	ENDOV	6	0.2	-0.14	inactive
19	SEPTIN11	1	1.16	0.605	inactive
20	SEPTIN11	2	0.28	0.605	inactive
21	SEPTIN11	3	0.93	0.605	inactive
22	SEPTIN11	4	1.36	0.605	inactive
23	SEPTIN11	5	-0.27	0.605	inactive
24	SEPTIN11	6	0.27	0.605	inactive
25	MLIP	1	-0.38	-0.365	inactive
26	MLIP	2	-0.82	-0.365	inactive
27	MLIP	3	0.35	-0.365	inactive
28	MLIP	4	-1.55	-0.365	active
29	MLIP	5	0.55	-0.365	inactive
30	MLIP	6	-0.35	-0.365	inactive
31	TMSB4XP8	1	2.95	0.13	active
32	TMSB4XP8	2	-1.33	0.13	active
33	TMSB4XP8	3	0.95	0.13	inactive
34	TMSB4XP8	4	-0.23	0.13	inactive
35	TMSB4XP8	5	-1.12	0.13	active
36	TMSB4XP8	6	0.49	0.13	inactive

A few values from the list.
CHST12 #2, z-score, median over gene's siRNAs → 0.045
Value for SEPTIN11 #5 in “call”: inactive
SUFU #3, z-score, median over gene's siRNAs → -0.165
TMSB4XP8 #5, TNF reporter z-score, replicate mean: -1.12
Entry of MLIP #3 under “TNF reporter z-score, replicate mean”: 0.35
